# Laboratory results published in ChEMBL document CHEMBL2218924, “A broad activity screen in support of a chemogenomic map for kinase signalling research and drug discovery” (Biochem J, 2013).
# The chains behind the UniProt entries cited, without tags or fusion partners. Where a name states a change or a piece, a line headed by the entry shows the natural chain unless it says otherwise.
# UniProt P22455, whole entry, looked up: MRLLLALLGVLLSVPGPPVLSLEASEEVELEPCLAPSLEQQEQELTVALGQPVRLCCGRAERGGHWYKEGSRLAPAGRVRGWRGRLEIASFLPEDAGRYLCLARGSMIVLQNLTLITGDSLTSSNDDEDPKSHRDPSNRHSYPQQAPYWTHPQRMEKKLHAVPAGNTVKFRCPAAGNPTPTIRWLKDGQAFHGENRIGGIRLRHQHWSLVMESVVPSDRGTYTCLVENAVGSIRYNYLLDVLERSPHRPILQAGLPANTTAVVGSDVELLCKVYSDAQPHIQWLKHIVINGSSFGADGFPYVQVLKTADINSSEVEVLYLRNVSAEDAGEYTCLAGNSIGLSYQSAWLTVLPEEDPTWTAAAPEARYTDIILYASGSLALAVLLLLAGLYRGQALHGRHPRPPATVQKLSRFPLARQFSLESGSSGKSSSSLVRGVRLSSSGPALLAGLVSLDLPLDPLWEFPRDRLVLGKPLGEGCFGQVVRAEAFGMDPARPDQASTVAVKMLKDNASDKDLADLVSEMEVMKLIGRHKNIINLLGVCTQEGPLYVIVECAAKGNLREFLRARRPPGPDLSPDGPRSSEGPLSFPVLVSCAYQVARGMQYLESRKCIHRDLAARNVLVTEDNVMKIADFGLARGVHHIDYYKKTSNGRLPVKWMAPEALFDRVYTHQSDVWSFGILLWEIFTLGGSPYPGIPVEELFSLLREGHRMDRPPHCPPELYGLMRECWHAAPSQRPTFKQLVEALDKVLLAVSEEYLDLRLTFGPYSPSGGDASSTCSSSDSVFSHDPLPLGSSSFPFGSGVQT
# UniProt P35916, whole entry: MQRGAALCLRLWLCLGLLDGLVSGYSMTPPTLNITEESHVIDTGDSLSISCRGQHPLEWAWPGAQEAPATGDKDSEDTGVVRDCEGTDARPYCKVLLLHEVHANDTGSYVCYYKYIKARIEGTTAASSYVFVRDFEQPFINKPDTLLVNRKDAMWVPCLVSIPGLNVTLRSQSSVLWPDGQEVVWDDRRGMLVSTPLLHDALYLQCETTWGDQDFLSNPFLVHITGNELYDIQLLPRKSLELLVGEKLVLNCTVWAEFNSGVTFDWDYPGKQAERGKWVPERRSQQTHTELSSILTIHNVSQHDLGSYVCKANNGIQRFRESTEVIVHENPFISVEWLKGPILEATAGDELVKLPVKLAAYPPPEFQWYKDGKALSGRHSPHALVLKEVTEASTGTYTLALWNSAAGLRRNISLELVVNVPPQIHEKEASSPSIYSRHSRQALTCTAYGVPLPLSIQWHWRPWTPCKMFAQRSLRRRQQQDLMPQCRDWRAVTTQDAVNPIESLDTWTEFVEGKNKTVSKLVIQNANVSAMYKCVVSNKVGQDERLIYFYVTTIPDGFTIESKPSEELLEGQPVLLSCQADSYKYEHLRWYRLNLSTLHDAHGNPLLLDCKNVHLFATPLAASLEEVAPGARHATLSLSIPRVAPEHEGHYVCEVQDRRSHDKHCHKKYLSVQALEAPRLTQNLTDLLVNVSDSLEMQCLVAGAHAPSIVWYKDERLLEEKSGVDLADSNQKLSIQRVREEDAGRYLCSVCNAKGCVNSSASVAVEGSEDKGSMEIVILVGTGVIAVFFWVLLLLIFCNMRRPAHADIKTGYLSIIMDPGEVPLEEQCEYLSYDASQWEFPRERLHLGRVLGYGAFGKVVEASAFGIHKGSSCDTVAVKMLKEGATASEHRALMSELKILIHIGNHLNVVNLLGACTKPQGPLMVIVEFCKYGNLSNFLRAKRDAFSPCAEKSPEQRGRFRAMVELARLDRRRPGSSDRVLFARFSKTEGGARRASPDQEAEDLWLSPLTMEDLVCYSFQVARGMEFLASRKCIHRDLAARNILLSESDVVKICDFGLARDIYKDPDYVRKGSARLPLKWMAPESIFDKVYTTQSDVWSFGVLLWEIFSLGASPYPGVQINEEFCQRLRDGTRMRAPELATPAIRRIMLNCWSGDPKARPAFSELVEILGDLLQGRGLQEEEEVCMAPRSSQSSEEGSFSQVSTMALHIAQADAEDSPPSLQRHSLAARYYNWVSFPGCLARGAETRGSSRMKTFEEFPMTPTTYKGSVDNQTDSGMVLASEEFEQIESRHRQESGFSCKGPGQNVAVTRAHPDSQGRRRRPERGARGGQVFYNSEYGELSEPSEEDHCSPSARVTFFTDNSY
# UniProt Q86Z02: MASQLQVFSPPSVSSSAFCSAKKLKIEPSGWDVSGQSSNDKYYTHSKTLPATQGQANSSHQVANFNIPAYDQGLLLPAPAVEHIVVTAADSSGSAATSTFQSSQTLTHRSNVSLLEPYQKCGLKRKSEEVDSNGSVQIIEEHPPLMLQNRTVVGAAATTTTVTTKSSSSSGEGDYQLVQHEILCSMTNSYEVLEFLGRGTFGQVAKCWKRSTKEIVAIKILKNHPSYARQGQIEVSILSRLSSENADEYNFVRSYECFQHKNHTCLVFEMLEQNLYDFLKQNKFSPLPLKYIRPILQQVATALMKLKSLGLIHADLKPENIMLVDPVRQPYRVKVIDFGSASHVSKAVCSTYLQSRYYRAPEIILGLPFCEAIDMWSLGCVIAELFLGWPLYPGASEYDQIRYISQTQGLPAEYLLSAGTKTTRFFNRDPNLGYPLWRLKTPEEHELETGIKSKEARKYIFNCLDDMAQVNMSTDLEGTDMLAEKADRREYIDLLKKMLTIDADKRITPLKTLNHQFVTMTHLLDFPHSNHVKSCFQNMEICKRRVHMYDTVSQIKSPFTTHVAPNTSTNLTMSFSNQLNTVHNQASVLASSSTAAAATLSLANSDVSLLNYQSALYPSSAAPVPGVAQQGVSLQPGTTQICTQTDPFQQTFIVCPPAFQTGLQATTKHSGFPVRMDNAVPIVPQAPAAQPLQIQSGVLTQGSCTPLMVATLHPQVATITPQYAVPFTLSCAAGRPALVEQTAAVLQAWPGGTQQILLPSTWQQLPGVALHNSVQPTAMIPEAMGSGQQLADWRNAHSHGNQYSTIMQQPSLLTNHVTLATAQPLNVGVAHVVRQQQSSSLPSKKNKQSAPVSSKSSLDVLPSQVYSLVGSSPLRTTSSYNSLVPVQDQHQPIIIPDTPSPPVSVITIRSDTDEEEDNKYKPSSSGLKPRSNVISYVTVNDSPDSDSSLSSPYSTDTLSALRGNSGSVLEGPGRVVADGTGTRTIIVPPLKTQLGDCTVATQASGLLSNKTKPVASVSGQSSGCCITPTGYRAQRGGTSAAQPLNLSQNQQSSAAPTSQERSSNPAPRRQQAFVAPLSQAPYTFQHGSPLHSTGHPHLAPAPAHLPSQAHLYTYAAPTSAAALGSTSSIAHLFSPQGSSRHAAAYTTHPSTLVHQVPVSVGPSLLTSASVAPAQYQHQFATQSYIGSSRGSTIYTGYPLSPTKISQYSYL
# UniProt Q9H2X6: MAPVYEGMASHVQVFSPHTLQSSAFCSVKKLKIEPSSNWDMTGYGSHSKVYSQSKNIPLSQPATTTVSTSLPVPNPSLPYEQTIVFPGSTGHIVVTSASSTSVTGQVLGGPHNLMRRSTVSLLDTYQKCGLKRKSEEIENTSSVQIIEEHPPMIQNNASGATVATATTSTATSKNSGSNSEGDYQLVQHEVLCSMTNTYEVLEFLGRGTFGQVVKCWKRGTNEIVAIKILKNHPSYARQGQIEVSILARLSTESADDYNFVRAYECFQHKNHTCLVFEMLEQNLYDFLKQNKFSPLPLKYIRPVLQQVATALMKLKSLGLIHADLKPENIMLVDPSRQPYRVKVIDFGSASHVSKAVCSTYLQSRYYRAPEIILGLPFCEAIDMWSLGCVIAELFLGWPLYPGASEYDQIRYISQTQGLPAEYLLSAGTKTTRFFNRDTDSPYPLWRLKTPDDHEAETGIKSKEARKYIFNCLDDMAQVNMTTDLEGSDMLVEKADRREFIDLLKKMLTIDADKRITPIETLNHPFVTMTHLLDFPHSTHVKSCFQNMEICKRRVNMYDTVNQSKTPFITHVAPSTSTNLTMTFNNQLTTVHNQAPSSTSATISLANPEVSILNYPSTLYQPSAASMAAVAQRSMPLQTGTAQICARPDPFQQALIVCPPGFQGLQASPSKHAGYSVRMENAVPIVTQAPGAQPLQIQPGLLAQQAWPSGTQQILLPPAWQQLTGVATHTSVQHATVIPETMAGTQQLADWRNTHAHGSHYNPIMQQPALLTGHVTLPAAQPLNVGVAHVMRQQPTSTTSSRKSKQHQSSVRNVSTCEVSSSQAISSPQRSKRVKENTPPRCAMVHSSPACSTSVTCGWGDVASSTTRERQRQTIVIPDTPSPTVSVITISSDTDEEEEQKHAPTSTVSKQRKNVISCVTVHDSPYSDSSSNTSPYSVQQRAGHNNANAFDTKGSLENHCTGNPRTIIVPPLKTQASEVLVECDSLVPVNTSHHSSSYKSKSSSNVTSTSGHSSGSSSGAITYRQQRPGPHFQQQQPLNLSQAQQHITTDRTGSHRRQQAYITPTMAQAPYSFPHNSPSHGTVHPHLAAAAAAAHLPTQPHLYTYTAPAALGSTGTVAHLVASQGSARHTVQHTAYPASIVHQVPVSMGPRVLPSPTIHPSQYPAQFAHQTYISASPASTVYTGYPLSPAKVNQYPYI
# UniProt Q9H422: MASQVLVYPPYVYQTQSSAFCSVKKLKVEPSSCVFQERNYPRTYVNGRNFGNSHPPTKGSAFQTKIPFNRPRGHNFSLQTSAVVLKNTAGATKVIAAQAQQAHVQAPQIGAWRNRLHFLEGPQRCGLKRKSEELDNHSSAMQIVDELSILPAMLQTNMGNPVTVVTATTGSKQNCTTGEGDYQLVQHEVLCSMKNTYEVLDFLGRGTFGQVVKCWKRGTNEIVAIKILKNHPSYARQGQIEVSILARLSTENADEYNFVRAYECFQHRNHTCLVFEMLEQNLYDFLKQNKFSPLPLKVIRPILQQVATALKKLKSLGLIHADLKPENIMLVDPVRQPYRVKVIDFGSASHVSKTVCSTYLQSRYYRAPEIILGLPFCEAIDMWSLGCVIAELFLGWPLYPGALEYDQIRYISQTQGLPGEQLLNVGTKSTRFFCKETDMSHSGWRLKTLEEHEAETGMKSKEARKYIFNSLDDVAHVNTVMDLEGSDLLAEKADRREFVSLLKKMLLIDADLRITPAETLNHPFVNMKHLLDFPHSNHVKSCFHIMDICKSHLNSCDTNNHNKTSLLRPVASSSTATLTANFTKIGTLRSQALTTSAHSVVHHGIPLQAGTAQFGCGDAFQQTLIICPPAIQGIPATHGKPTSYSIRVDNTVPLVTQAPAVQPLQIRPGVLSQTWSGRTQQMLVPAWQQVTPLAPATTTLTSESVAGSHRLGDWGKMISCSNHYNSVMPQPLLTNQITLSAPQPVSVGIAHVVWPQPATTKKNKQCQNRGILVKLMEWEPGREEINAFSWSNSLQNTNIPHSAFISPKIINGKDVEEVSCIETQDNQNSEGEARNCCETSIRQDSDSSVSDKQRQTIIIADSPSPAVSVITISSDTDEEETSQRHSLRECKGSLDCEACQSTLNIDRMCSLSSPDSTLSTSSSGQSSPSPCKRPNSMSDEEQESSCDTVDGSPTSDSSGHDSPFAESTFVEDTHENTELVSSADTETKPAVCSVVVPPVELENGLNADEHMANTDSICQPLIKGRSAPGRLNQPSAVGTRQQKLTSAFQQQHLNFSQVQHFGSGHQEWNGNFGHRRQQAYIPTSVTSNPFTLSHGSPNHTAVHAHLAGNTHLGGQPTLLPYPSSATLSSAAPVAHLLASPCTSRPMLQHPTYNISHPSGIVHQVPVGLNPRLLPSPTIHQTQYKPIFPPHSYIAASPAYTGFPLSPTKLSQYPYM
# UniProt P08631: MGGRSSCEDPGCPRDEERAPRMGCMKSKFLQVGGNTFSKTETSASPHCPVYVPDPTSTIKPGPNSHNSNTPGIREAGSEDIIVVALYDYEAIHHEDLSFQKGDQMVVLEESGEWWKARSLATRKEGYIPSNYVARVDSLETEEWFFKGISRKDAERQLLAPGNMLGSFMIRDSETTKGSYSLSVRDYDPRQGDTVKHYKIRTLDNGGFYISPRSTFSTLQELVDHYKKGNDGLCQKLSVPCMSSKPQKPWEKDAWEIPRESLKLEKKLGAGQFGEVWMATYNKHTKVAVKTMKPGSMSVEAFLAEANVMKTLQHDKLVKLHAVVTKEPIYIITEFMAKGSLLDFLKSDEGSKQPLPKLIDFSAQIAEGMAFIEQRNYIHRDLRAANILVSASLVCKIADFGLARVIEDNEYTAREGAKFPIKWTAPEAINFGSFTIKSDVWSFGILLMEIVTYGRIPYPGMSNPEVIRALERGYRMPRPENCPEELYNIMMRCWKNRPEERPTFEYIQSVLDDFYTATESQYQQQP
# For some assays here: Most of the strong results are listed elsewhere, so they are rarer here than in the full data. How the calls were made is not given here. Only a part is listed here, and it is no random draw.
# Assays:
# [1] = molecular target: Fibroblast growth factor receptor 1 (Homo sapiens) (UniProt P11362); conditions: at 1 µM
# [2] = molecular target: Fibroblast growth factor receptor 1 (Homo sapiens) (UniProt P11362); conditions: at 10 µM
# [3] = molecular target: Fibroblast growth factor receptor 2 (Homo sapiens) (UniProt P21802); conditions: at 1 µM
# [4] = molecular target: Fibroblast growth factor receptor 2 (Homo sapiens) (UniProt P21802); conditions: at 10 µM
# [5] = molecular target: Fibroblast growth factor receptor 3 (Homo sapiens) (UniProt P22607); conditions: at 1 µM
# [6] = molecular target: Fibroblast growth factor receptor 3 (Homo sapiens) (UniProt P22607); conditions: at 10 µM
# [7] = molecular target: Fibroblast growth factor receptor 4 (Homo sapiens) (UniProt P22455); conditions: at 1 µM
# [8] = molecular target: Fibroblast growth factor receptor 4 (Homo sapiens) (UniProt P22455); conditions: at 10 µM
# [9] = molecular target: Tyrosine-protein kinase Fer (Homo sapiens) (UniProt P16591); conditions: at 1 µM
# [10] = molecular target: Tyrosine-protein kinase Fer (Homo sapiens) (UniProt P16591); conditions: at 10 µM
# [11] = molecular target: Tyrosine-protein kinase Fes/Fps (Homo sapiens) (UniProt P07332); conditions: at 1 µM
# [12] = molecular target: Tyrosine-protein kinase Fes/Fps (Homo sapiens) (UniProt P07332); conditions: at 10 µM
# [13] = molecular target: Tyrosine-protein kinase Fgr (Homo sapiens) (UniProt P09769); conditions: at 1 µM
# [14] = molecular target: Tyrosine-protein kinase Fgr (Homo sapiens) (UniProt P09769); conditions: at 10 µM
# [15] = molecular target: Vascular endothelial growth factor receptor 1 (Homo sapiens) (UniProt P17948); conditions: at 1 µM
# [16] = molecular target: Vascular endothelial growth factor receptor 1 (Homo sapiens) (UniProt P17948); conditions: at 10 µM
# [17] = molecular target: Receptor-type tyrosine-protein kinase FLT3 (Homo sapiens) (UniProt P36888); conditions: at 1 µM
# [18] = molecular target: Receptor-type tyrosine-protein kinase FLT3 (Homo sapiens) (UniProt P36888); conditions: at 10 µM
# [19] = molecular target: Vascular endothelial growth factor receptor 3 (Homo sapiens) (UniProt P35916); conditions: at 1 µM
# [20] = molecular target: Vascular endothelial growth factor receptor 3 (Homo sapiens) (UniProt P35916); conditions: at 10 µM
# [21] = molecular target: Macrophage colony-stimulating factor 1 receptor (Homo sapiens) (UniProt P07333); conditions: at 1 µM
# [22] = molecular target: Macrophage colony-stimulating factor 1 receptor (Homo sapiens) (UniProt P07333); conditions: at 10 µM
# [23] = molecular target: Tyrosine-protein kinase Fyn (Homo sapiens) (UniProt P06241); conditions: at 1 µM
# [24] = molecular target: Tyrosine-protein kinase Fyn (Homo sapiens) (UniProt P06241); conditions: at 10 µM
# [25] = molecular target: Mitogen-activated protein kinase kinase kinase kinase 2 (Homo sapiens) (UniProt Q12851); conditions: at 1 µM
# [26] = molecular target: Mitogen-activated protein kinase kinase kinase kinase 2 (Homo sapiens) (UniProt Q12851); conditions: at 10 µM
# [27] = molecular target: G protein-coupled receptor kinase 5 (Homo sapiens) (UniProt P34947); conditions: at 1 µM
# [28] = molecular target: G protein-coupled receptor kinase 5 (Homo sapiens) (UniProt P34947); conditions: at 10 µM
# [29] = molecular target: G protein-coupled receptor kinase 6 (Homo sapiens) (UniProt P43250); conditions: at 1 µM
# [30] = molecular target: G protein-coupled receptor kinase 6 (Homo sapiens) (UniProt P43250); conditions: at 10 µM
# [31] = molecular target: Rhodopsin kinase GRK7 (Homo sapiens) (UniProt Q8WTQ7); conditions: at 1 µM
# [32] = molecular target: Rhodopsin kinase GRK7 (Homo sapiens) (UniProt Q8WTQ7); conditions: at 10 µM
# [33] = molecular target: Glycogen synthase kinase-3 alpha (Homo sapiens) (UniProt P49840); conditions: at 1 µM
# [34] = molecular target: Glycogen synthase kinase-3 alpha (Homo sapiens) (UniProt P49840); conditions: at 10 µM
# [35] = molecular target: Glycogen synthase kinase-3 beta (Homo sapiens) (UniProt P49841); conditions: at 1 µM
# [36] = molecular target: Glycogen synthase kinase-3 beta (Homo sapiens) (UniProt P49841); conditions: at 10 µM
# [37] = molecular target: Homeodomain-interacting protein kinase 1 (Homo sapiens) (UniProt Q86Z02); conditions: at 1 µM
# [38] = molecular target: Homeodomain-interacting protein kinase 1 (Homo sapiens) (UniProt Q86Z02); conditions: at 10 µM
# [39] = molecular target: Homeodomain-interacting protein kinase 2 (Homo sapiens) (UniProt Q9H2X6); conditions: at 1 µM
# [40] = molecular target: Homeodomain-interacting protein kinase 2 (Homo sapiens) (UniProt Q9H2X6); conditions: at 10 µM
# [41] = molecular target: Homeodomain-interacting protein kinase 3 (Homo sapiens) (UniProt Q9H422); conditions: at 1 µM
# [42] = molecular target: Homeodomain-interacting protein kinase 3 (Homo sapiens) (UniProt Q9H422); conditions: at 10 µM
# [43] = molecular target: Serine/threonine-protein kinase haspin (Homo sapiens) (UniProt Q8TF76); conditions: at 1 µM
# [44] = molecular target: Serine/threonine-protein kinase haspin (Homo sapiens) (UniProt Q8TF76); conditions: at 10 µM
# [45] = molecular target: Tyrosine-protein kinase HCK (Homo sapiens) (UniProt P08631); conditions: at 1 µM
# [46] = molecular target: Tyrosine-protein kinase HCK (Homo sapiens) (UniProt P08631); conditions: at 10 µM
# [47] = molecular target: Tyrosine-protein kinase HCK (Homo sapiens) (UniProt P08631); conditions: at 1 µM; remark: listed apart in the source
# [48] = molecular target: Tyrosine-protein kinase HCK (Homo sapiens) (UniProt P08631); conditions: at 10 µM; remark: listed apart in the source
# [49] = molecular target: Insulin-like growth factor 1 receptor (Homo sapiens) (UniProt P08069); conditions: at 1 µM
# [50] = molecular target: Insulin-like growth factor 1 receptor (Homo sapiens) (UniProt P08069); conditions: at 10 µM
# [51] = molecular target: Protein kinase C zeta type (Homo sapiens) (UniProt Q05513); conditions: at 10 µM
# [52] = molecular target: Protein kinase C eta type (Homo sapiens) (UniProt P24723); conditions: at 1 µM
# [53] = molecular target: Protein kinase C eta type (Homo sapiens) (UniProt P24723); conditions: at 10 µM
# [54] = molecular target: Protein kinase C theta type (Homo sapiens) (UniProt Q04759); conditions: at 1 µM
# [55] = molecular target: Protein kinase C theta type (Homo sapiens) (UniProt Q04759); conditions: at 10 µM
# [56] = molecular target: Protein kinase C iota type (Homo sapiens) (UniProt P41743); conditions: at 1 µM
compound,measurement,setting,value
O=C1Nc2ccc(-c3cccnc3)cc2/C1=C\c1ccc[nH]1,residual activity,[1],28%
same,residual activity,[2],4%
same,residual activity,[3],49%
same,residual activity,[4],9%
same,residual activity,[5],46%
same,residual activity,[6],7%
same,residual activity,[7],122%
same,residual activity,[8],63%
same,residual activity,[9],97%
same,residual activity,[10],40%
same,residual activity,[11],93%
same,residual activity,[12],20%
same,residual activity,[13],11%
same,residual activity,[14],2%
same,residual activity,[15],2%
same,residual activity,[16],0%
same,residual activity,[17],0%
same,residual activity,[18],1%
same,residual activity,[19],2%
same,residual activity,[20],0%
same,residual activity,[21],42%
same,residual activity,[22],8%
same,residual activity,[23],37%
same,residual activity,[24],6%
same,residual activity,[25],3%
same,residual activity,[26],0%
same,residual activity,[27],76%
same,residual activity,[28],32%
same,residual activity,[29],81%
same,residual activity,[30],34%
same,residual activity,[31],41%
same,residual activity,[32],6%
same,residual activity,[33],12%
same,residual activity,[34],2%
same,residual activity,[35],14%
same,residual activity,[36],8%
same,residual activity,[37],45%
same,residual activity,[38],8%
same,residual activity,[39],8%
same,residual activity,[40],0%
same,residual activity,[41],10%
same,residual activity,[42],0%
same,residual activity,[43],9%
same,residual activity,[44],1%
same,residual activity,[45],40%
same,residual activity,[46],8%
same,residual activity,[47],41%
same,residual activity,[48],8%
same,residual activity,[49],143%
same,residual activity,[50],92%
same,residual activity,[51],74%
same,residual activity,[52],92%
same,residual activity,[53],61%
same,residual activity,[54],28%
same,residual activity,[55],5%
same,residual activity,[56],inactive: 88%
